# Library screen at single concentrations

A: 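Whole-parasite assay of Trypanosoma brucei over 72 hours; the read-out is not stated. Compounds at 30 µM. Higher reads as stronger inhibition (inferred: compounds with an IC50 in retests scored well above the rest). Values scatter widely below zero; nearly all retest evidence comes from the higher of the two concentrations used. Of about 64,000 compounds tested this way, about 940 (1.5%) reached 50% or more in at least one test.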
B: 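Assay of Toxoplasma gondii numbers, read through their beta-galactosidase reporter with a colour substrate. Compounds at 10 µM. The record gives no direction; the compounds picked for IC50 retests had high values, so higher reads as fewer parasites. About 67,000 compounds were tested under these conditions; 0.38% (about 260) showed 50% or more at least once.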

Values are the deposited “Percent Effect”, in %.
The controls that fix the scale are not given in the record; negative values are as filed.
The compounds are a random part of those screened.
A dash means the value is not listed here; it may have been measured.

Compound	A	B
CSc1cc2c(cc1NC(=O)NCc1ccncc1)OCCO2	-46.41	3.472
Cc1cnn(CCNCC(O)COc2ccc(C#N)cc2)c1 (stereo unspecified)	14.48	-
O=C(C1=CC2(CCN(CCO)CC2)c2ccccc21)N1CCCC1.O=C(O)C(F)(F)F	-66.03	4.641
COc1ccc([C@@H]2CN(C(=O)CCn3cccn3)C[C@H]2NC(C)=O)cc1	-181.3	-4.169
O=C(CN(CC(O)c1ccc(F)cc1)C1CC1)NCc1cccs1 (stereo unspecified)	-22.68	1.134
O=C(Nc1ccc(F)cc1)C1CCN(Cc2noc(C3CC3)n2)CC1	-10.29	9.569
Cc1cc(CN2CCN(Cc3ccc(C#N)cc3F)CC2)no1	-14.16	11.15
CN(C)C(CNC(=O)OCC(F)(F)F)c1ccsc1 (stereo unspecified)	-44.83	-35.05
CS(=O)(=O)NCc1nnc2n1CCN(CC1CC1)C2	-	5.11
Cc1ncc(COc2ccc(N(C)S(C)(=O)=O)cc2)s1	-30.1	4.746
c1ccc(-c2nc(CN3CCCC3Cn3cncn3)no2)cc1 (stereo unspecified)	6.98	-7.882
Cc1nc(CCNC(=O)C(N)c2c(C)n[nH]c2C)sc1C (stereo unspecified)	-1.575	21.35
Cc1cn2c(n1)CCC(NC(=O)c1ccc(CS(C)(=O)=O)cc1)C2 (stereo unspecified)	7.299	-12.42
COCc1nc(N2CCC(CCO)CC2)c2cnn(C)c2n1	-16.29	-5.758
C=C(C)COc1cccc(CNC(COC)c2ccnn2C)c1 (stereo unspecified)	-18.8	-5.434
O=C(NCCc1ccc(I)s1)N1CCC1	3.5	5.346
CC(=O)N1CCCN(Cc2csc(C)n2)c2ccccc21	-33.98	7.788
CN(C)CCOCc1nnc2n1CCN(Cc1ccsc1)C2.O=C(O)C(F)(F)F.O=C(O)C(F)(F)F	-34.26	4.722
COC(=O)[C@H](CSC)Nc1nc(C2CCCC2)nc2c1cnn2C	-17.15	-8.945
Cc1ccc(C(=O)NC2CCN(Cc3nc(C(C)C)no3)CC2)s1	-7.613	-9.664
Cn1cnc2c1CCN(Cc1nc(COc3ccc(F)cc3)no1)C2	-38.24	-7.219
CSc1cc2c(cc1NC(=O)NCC(C)(C)C(N)=O)OCCO2	-42.86	-5.525
CCCNC(=O)CNc1ccc2c(c1)N(C(=O)OC(C)(C)C)CCC2	-10.91	-5.461
COc1ccc(C(C)NCCC(N)=O)cc1F (stereo unspecified)	-19.58	1.868
[H][C@@]12CCN(C(C)=O)C[C@@]1([H])[C@H](C(=O)Nc1cccnc1C)CCO2	-0.7335	-10.5
Cc1noc(C)c1CN(C)C(=O)c1ccc2c(c1O)OC(C)(C)C2	-38.34	4.615
Cc1n[nH]c(C)c1-c1nccnc1CC1CCNC1 (stereo unspecified)	6.304	-5.872
COCC1c2c(cnn2CC2CC2)CCN1Cc1ccsc1.O=C(O)C(F)(F)F.O=C(O)C(F)(F)F (stereo unspecified)	-8.424	4.832
COC1CCN(Cc2csc(C(C)C)n2)CC1	-8.492	2.432
CN(Cc1ccccc1)CC1(O)CCCN(CC(C)(C)C)C1=O (stereo unspecified)	3.699	-1.57
O=C(Nc1ccccc1OC1CCOC1)c1cc[nH]n1 (stereo unspecified)	-81.27	8.245
COCc1cccc(NCc2cccnc2)c1	-52.66	13.04
CN1CCc2[nH]cnc2C12CCN(Cc1ccc3nsnc3c1)CC2	-10.43	11.15
CC(NC(=O)Cn1cccnc1=O)c1ccc(C(F)(F)F)cc1 (stereo unspecified)	-14.44	0.2981
[H][C@]12CCN(Cc3ccco3)[C@@]1([H])CC[C@H](COCc1ccncc1)O2	-19.27	-7.636
c1cncc(CN(CCCn2ccnc2)CC2CCOC2)c1 (stereo unspecified)	7.008	-15.78
CCCc1nnc2sc(C3CCN(CCOC)CC3)nn12	-24.64	1.765
CC(C)Nc1ncnc2c1CCN(C(=O)c1ccncc1F)CC2.O=C(O)C(F)(F)F	-	-1.452
CCS(=O)(=O)N1CCc2ccc(NC(=O)NC(C)(C)C)cc21	-13.17	19.96
CCc1noc(CN2CCC(C(=O)Nc3cnn(CC)c3)CC2)n1	8.257	-15.18
CC(C)OCCN1CCN(c2ccc(CN(C)C)cn2)CC1	1.843	14.11
CCCC(=O)N(C)Cc1nc(N2CCCC2)ncc1-c1ccncc1.Cl	24.09	13.77
[H][C@@]12CN(C(C)=O)C[C@]1([H])C(=O)N(C)C21CCN(C(=O)C(C)C)CC1	-22.32	-12.55
Cc1cc(C)n(C2CCCN(C(=O)c3cn4cccnc4n3)C2)n1 (stereo unspecified)	11.26	-0.5236
O=C1CN(C(=O)c2ccc(F)cc2)CC(O)CN1Cc1cccs1 (stereo unspecified)	5.097	3.547
CC(C)(C)c1n[nH]c(C2CN(C(=O)C3=COCCC3)CCO2)n1 (stereo unspecified)	18.36	-19.33
Cc1cc(C2CCCCN2C(=O)CN2CC3(CCNCC3)OC2=O)no1 (stereo unspecified)	-33.83	-4.348
COc1cccc(Cn2cc(C3=CCN(CCO)CC3)cn2)c1	2.749	-21.55
Cc1ccc(NC2CCN(C(=O)CCc3ccco3)CC2)nn1	-38.43	2.693
CCS(=O)(=O)N1CCN(C(C)c2ncc(-c3ccccc3)o2)CC1 (stereo unspecified)	-48.45	4.919
COCCN1CCN(CCS(C)(=O)=O)CC1C (stereo unspecified)	-30.08	11.77

The last 4 entries again:

- COc1cccc(Cn2cc(C3=CCN(CCO)CC3)cn2)c1 | A: 2.749%; B: -21.55%
- Cc1ccc(NC2CCN(C(=O)CCc3ccco3)CC2)nn1 | A: -38.43%; B: 2.693%
- CCS(=O)(=O)N1CCN(C(C)c2ncc(-c3ccccc3)o2)CC1 (stereo unspecified) | A: -48.45%; B: 4.919%
- COCCN1CCN(CCS(C)(=O)=O)CC1C (stereo unspecified) | A: -30.08%; B: 11.77%

Data taken from ChEMBL document CHEMBL3988442, “University of Dundee, Small-Polar-MMV Screening Library” (2021).